Data as given in PubChem BioAssay AID1259308 (NCATS, 2017).

Screen: 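Genes whose loss raises luciferase production in HEK293 cells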 (primary screen)
Cell system: human HEK293 embryonic kidney cells stably expressing firefly luciferase (HEK-CMV-Luc2-Hygro)
Knock-down reagent: single siRNA against human genes, 0.8 pmol siRNA per well
Timing: 72 h
Measured: 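Luciferase light (ONE-Glo) measured on one replicate plate set and viability (CellTiter-Glo) on the other, scaled to a negative control siRNA, with robust z-scores and luciferase per cell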
Reading the numbers: total luciferase, z-score and total luciferase, % of control: higher = more reporter protein produced; luciferase per cell, z-score: higher = more reporter output per viable cell; viable cells, % of control: higher = more viable cells
Call rule: 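An siRNA counts as active if its total luciferase robust z-score exceeds 3; genes with two or more such siRNAs out of three were retested with fresh siRNAs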
Meaning of the calls: active = raised luciferase; inactive = no rise
In all, the deposit lists about 59,000 reagents; this is an unselected part. In the full data, about 1,510 (2.6%) are marked active. 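Calls use total luciferase alone and ignore viability, so some active siRNAs may act by altering cell number.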 Reagents against one gene are numbered here. Reagent sequences are not shown.

target gene | reagent | total luciferase, z-score | total luciferase, % of control | luciferase per cell, z-score | viable cells, % of control | call
PRDM6 | 1 | 1.03 | 102 | 1.31 | 81.1 | inactive
PRDM6 | 2 | 0.0575 | 83 | -0.638 | 110 | inactive
PRDM6 | 3 | 0.264 | 87.1 | 0.741 | 80.1 | inactive
NDFIP1 | 1 | 0.921 | 100 | 1.46 | 76.2 | inactive
NDFIP1 | 2 | -0.294 | 76 | -0.417 | 94.8 | inactive
NDFIP1 | 3 | -0.631 | 69.3 | -1.21 | 107 | inactive
PEG3 | 1 | 0.365 | 89.1 | 0.161 | 95.5 | inactive
PEG3 | 2 | -0.805 | 65.9 | -0.792 | 90.7 | inactive
PEG3 | 3 | 0.448 | 90.8 | -0.179 | 106 | inactive
TXNDC5 | 1 | 0.886 | 99.5 | 0.417 | 99.6 | inactive
TXNDC5 | 2 | 0.583 | 93.5 | 0.349 | 95.3 | inactive
TXNDC5 | 3 | 0.513 | 92.1 | 0.525 | 89.6 | inactive
STRC | 1 | -1.64 | 49.3 | 1.26 | 39.5 | inactive
STRC | 2 | 3.32 | 148 | 3.05 | 74 | active
STRC | 3 | -0.262 | 76.7 | -0.791 | 106 | inactive
SERPINI1 | 1 | 0.122 | 84.3 | 0.528 | 82 | inactive
SERPINI1 | 2 | 0.145 | 84.8 | -0.485 | 108 | inactive
SERPINI1 | 3 | 0.946 | 101 | 0.579 | 96.6 | inactive
LINC01168 | 1 | 1.35 | 109 | 0.461 | 108 | inactive
LINC01168 | 2 | 4.59 | 173 | 2.04 | 113 | active
LINC01168 | 3 | -2.36 | 35 | -2.04 | 66.8 | inactive
GDI2 | 1 | 0.21 | 86.1 | -0.294 | 104 | inactive
GDI2 | 2 | 0.137 | 84.6 | -0.21 | 99.9 | inactive
GDI2 | 3 | -1.84 | 45.3 | -1.11 | 68 | inactive
SLC25A23 | 1 | 3.2 | 145 | 3.14 | 71.2 | active
SLC25A23 | 2 | 1.96 | 121 | 1.96 | 80.6 | inactive
SLC25A23 | 3 | -0.589 | 70.2 | -0.22 | 83.1 | inactive
TECTA | 1 | -0.955 | 62.9 | -0.828 | 87.4 | inactive
TECTA | 2 | -0.883 | 64.3 | -0.514 | 82.3 | inactive
TECTA | 3 | -1.95 | 43.1 | -2.41 | 90.9 | inactive
PSMG2 | 1 | 0.0437 | 82.8 | 0.287 | 85.8 | inactive
PSMG2 | 2 | -0.264 | 76.6 | -0.29 | 92.4 | inactive
PSMG2 | 3 | 0.743 | 96.7 | -0.322 | 118 | inactive

Part of the list above, set out differently:
| target gene | reagent | total luciferase, z-score | total luciferase, % of control | luciferase per cell, z-score | viable cells, % of control | call |
| --- | --- | --- | --- | --- | --- | --- |
| LINC01168 | 3 | -2.36 | 35 | -2.04 | 66.8 | inactive |
| GDI2 | 1 | 0.21 | 86.1 | -0.294 | 104 | inactive |

Additional records follow.
target gene | reagent | total luciferase, z-score | total luciferase, % of control | luciferase per cell, z-score | viable cells, % of control | call
ADAM2 | 1 | -0.43 | 73.3 | -0.558 | 94.9 | inactive
ADAM2 | 2 | 0.751 | 96.8 | 0.648 | 91.2 | inactive
ADAM2 | 3 | -1.12 | 59.5 | -0.291 | 71.8 | inactive
CDHR5 | 1 | 1.68 | 115 | 1.27 | 92.2 | inactive
CDHR5 | 2 | -2.7 | 28.2 | -1.9 | 51.9 | inactive
CDHR5 | 3 | -1.3 | 56 | -1.51 | 93.1 | inactive
DAD1 | 1 | 0.195 | 85.8 | 0.633 | 81.1 | inactive
DAD1 | 2 | 0.708 | 96 | 0.211 | 101 | inactive
DAD1 | 3 | 0.221 | 86.3 | -0.484 | 110 | inactive
PGAM1P4 | 1 | -0.668 | 68.6 | -0.562 | 88.9 | inactive
PGAM1P4 | 2 | -0.128 | 79.3 | -0.186 | 93.1 | inactive
PGAM1P4 | 3 | 2.02 | 122 | 1.72 | 86.7 | inactive
RBM11 | 1 | -1.34 | 55.3 | -1.63 | 94.9 | inactive
RBM11 | 2 | 0.841 | 98.6 | 0.875 | 87.5 | inactive
RBM11 | 3 | -1.4 | 54.1 | -1.13 | 81.3 | inactive
TNFRSF10B | 1 | 1.07 | 103 | 0.743 | 94.8 | inactive
TNFRSF10B | 2 | 0.74 | 96.6 | 0.248 | 101 | inactive
TNFRSF10B | 3 | 1.23 | 106 | 0.0174 | 118 | inactive
ZNF778 | 1 | -0.898 | 64 | -0.471 | 81 | inactive
ZNF778 | 2 | -1.09 | 60.3 | -0.164 | 70.3 | inactive
ZNF778 | 3 | 0.0904 | 83.7 | 0.129 | 90.4 | inactive
HPCAL1 | 1 | -0.491 | 72.1 | -0.261 | 86.3 | inactive
HPCAL1 | 2 | 1.38 | 109 | 0.553 | 106 | inactive
HPCAL1 | 3 | -0.00316 | 81.8 | -0.252 | 97.7 | inactive
